No constants are given. Whether binding was seen depends on the method and setting. Binding calls can cover weak binding; strength is not graded here.
Target: monkey TIGIT (monkey)
Assay: hybridoma screening, ELISA and FACS

binding: binds
B1: B3/29F6 (antibody, V domains shown)
VH: DVQLQESGPGLVKPSQSLSLTCTVTGYSITSDYAWIWIRQFPGNKVEWMGYITSSGSTSYNPSLKSRISFTRDTSKNQFFLQLTSVTTEDTATYYCARLDFGNYGGAMDYWGQGTSVTVSS
VL: DIVMTQSHKFMSTSIGDRVSITCKASQHVSTAVAWYQQKPGQSPKLLIYSASYRYTGVPDRFTGSRSGTDFTFTISSVQAEDLAVYYCQQHYITPYTFGGGTKLEIK
